Experimental data as given in US20200299328A1 (SOUTH CHINA UNIVERSITY OF TECHNOLOGY, priority 2018, published 2020).

Test: general procedure: Fmoc solid-phase peptide synthesis; Wang resin; DCC/DMAP for first amino acid; HOBt for remaining couplings
Conditions: whole synthesis, scale of the general procedure 0.0125 mmoL resin

Pro-Pro-Lys-Asn-Trp
final HPLC purity: more than 99%
